Experimental data from the supplement of paper PMC7877785.
± gives the uncertainty stated by the source. Many of these values have a large error.

Test: self-splicing fitness, log relative to wild type (ln ratio); higher = more splicing; Tetrahymena group I intron in knt gene, E. coli kanamycin selection, DiMSum; sequences stand for … in CUCUCU…GGAGGGAAAAGUUAUCAGGCAUGCACCUGGUAGCUAGUCUUUAAACCAAUAGAUUGCAUCGGUUUAAAAGGCAAGACCGUCAAAUUGCGGGAAAGGGGUCAACAGCCGUUCAGUACCAAGUCUCAGGGGAAACUUUGAGAUGGCCUUGCAAAGGGUAUGGUAAUAAGCUGACGGACAUGGUCCUAACCACGCAGCCAAGUCCUAAGUCAACAGAUCUUCUGUUGAUAUGGAUGCAGUUCACAGACUAAAUGUCGGUCGGGGAAGAUGUAUUCUUCUCAUAAGAUAUAGUCGGACCUCUCCUUAAUGGGAGCUAGCGGAUGAAGUGAUGCAACACUGGAGCCGCUGGGAACUAAUUUGUAUGCGAAAGUAUAUUGAUUAGUUUUGGAGUACUCGUGGUCG
How it was run: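 A randomised library covering all eight P1ex-region intron nucleotides was built with the intron in the knt kanamycin-resistance gene on pET-22b(+) and held in E. coli BL21(DE3). Cells were grown overnight at 37°C or 30°C on LB agar, with or without 25 μg/mL kanamycin, plus 100 μg/mL carbenicillin, 50 μM IPTG and 0.2% rhamnose, and pooled colonies were amplicon-sequenced on an Illumina HiSeq 2500. DiMSum fitness is the error-weighted combination of wild-type-normalised replicate fold changes, kanamycin versus none.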

Row | Sequence | self-splicing fitness (ln) (30 °C) | self-splicing fitness (ln) (37 °C)
1 | CGUUAGCAAUAUUACGACAG | 0.473 ± 0.14 | -0.134 ± 0.15
2 | GGGUAGCAAUAUUACGGGUU | -2.7 ± 0.15 | -1.27 ± 0.14
3 | UUGAAGCAAUAUUACGCUAC | -4.92 ± 1 | 
4 | AUGGAGCAAUAUUACGAAAU |  | -2.87 ± 0.61
5 | CUAUAGCAAUAUUACGUACU |  | -2.74 ± 0.76
6 | UAGAAGCAAUAUUACGAGUU | -3.6 ± 0.53 | 
7 | CACUAGCAAUAUUACGAAGC | -3.11 ± 0.74 | 
8 | UUUCAGCAAUAUUACGCUGA | -3.32 ± 0.47 | -2.24 ± 0.42
9 | UAACAGCAAUAUUACGAGCC | -2.65 ± 0.24 | -2.24 ± 0.49
10 | CCCAAGCAAUAUUACGCCAU | -3.28 ± 0.22 | -2.5 ± 0.23
11 | UAGGAGCAAUAUUACGAAGG |  | 0.928 ± 1.1
12 | UUACAGCAAUAUUACGACAC |  | -1.67 ± 0.55
13 | GUCGAGCAAUAUUACGAGGU |  | -1.97 ± 0.52
14 | CGAGAGCAAUAUUACGAUAU |  | -1.54 ± 0.6
15 | AGAUAGCAAUAUUACGCCAC | -1.49 ± 0.51 | 
16 | GGAAAGCAAUAUUACGCCAC |  | -2.01 ± 0.57
17 | GAAGAGCAAUAUUACGAGCG | -3.17 ± 0.2 | -0.882 ± 0.17
18 | GACGAGCAAUAUUACGGUUC | -2.65 ± 1.1 | 
19 | UAGUAGCAAUAUUACGAUAG |  | -1.9 ± 0.54
20 | CAUGAGCAAUAUUACGGUCC |  | -2.94 ± 0.53
21 | GAGGAGCAAUAUUACGCACU | -2.12 ± 0.59 | 
22 | UAUAAGCAAUAUUACGAAGC | -3.06 ± 1.1 | -2.63 ± 1.1
23 | GGGUAGCAAUAUUACGAGUA | -2.64 ± 0.54 | 
24 | UUUUAGCAAUAUUACGACUC | -2.56 ± 0.46 | -1.73 ± 0.82

Row | Sequence | self-splicing fitness (ln) (30 °C) | self-splicing fitness (ln) (37 °C)
25 | CAUAAGCAAUAUUACGACCA | -3.58 ± 0.73 | 
26 | UUUUAGCAAUAUUACGUGCA | -2.12 ± 0.17 | -1.11 ± 0.18
27 | GUGGAGCAAUAUUACGGUUC | -4.95 ± 1 | -1.9 ± 0.58
28 | AAGAAGCAAUAUUACGGCUU | -2.42 ± 0.14 | -3.23 ± 0.24
29 | UGAUAGCAAUAUUACGCCGC |  | -1 ± 0.92
30 | GGGAAGCAAUAUUACGGAUA | -2.17 ± 0.65 | 
31 | ACAGAGCAAUAUUACGAUAC |  | -2.82 ± 0.53
32 | ACGGAGCAAUAUUACGGCUA | -1.96 ± 0.21 | -0.548 ± 0.14
33 | CUAUAGCAAUAUUACGCAAA | -2.52 ± 0.57 | -2.41 ± 0.76
34 | UGAGAGCAAUAUUACGAUAA |  | -1.5 ± 0.69
35 | CGUUAGCAAUAUUACGUCGC | -2.58 ± 0.8 | 
36 | AGGGAGCAAUAUUACGAAGG |  | -2.68 ± 0.75
37 | UAGUAGCAAUAUUACGUGUC | -2.18 ± 0.59 | 
38 | GCGAAGCAAUAUUACGCACC | -2.65 ± 1.1 | -0.351 ± 0.73
39 | UUGGAGCAAUAUUACGGGUC |  | -3.25 ± 0.53
40 | UGAGAGCAAUAUUACGCGCA | -1.38 ± 0.57 | -0.326 ± 0.59
41 | UGAGAGCAAUAUUACGUCGC | -2.4 ± 0.61 | -1.69 ± 1.2
42 | CUACAGCAAUAUUACGAUGC | -3.88 ± 0.39 | -2.81 ± 0.2
43 | GUGGAGCAAUAUUACGGAAA |  | -1.36 ± 0.84
44 | CUUGAGCAAUAUUACGUGUU | -4.81 ± 1 | -2.54 ± 0.23
45 | CAGGAGCAAUAUUACGUGCC |  | -1.96 ± 0.52
46 | UUCGAGCAAUAUUACGAAUA | -2.62 ± 0.56 | 
47 | CAUGAGCAAUAUUACGCCCC | -0.86 ± 0.91 | 
48 | UGUAAGCAAUAUUACGCUUC | -4.29 ± 0.72 | -3.41 ± 0.73

Entries 34 through 36 from above:
Row | Sequence | self-splicing fitness (ln) (30 °C) | self-splicing fitness (ln) (37 °C)
34 | UGAGAGCAAUAUUACGAUAA |  | -1.5 ± 0.69
35 | CGUUAGCAAUAUUACGUCGC | -2.58 ± 0.8 | 
36 | AGGGAGCAAUAUUACGAAGG |  | -2.68 ± 0.75
